Literature values in US4939173A, “Aryloxy alkanols as anti-retrovirus agents” (Merrell Dow Pharmaceuticals Inc., priority 1988, dated 1990).
At least one compound was matched to its structure with a doubt left.

System: HIV and other retroviruses
Conditions: previously shown; cited from earlier work

Cc1cn([C@H]2C[C@H](N=[N+]=[N-])[C@@H](CO)O2)c(=O)[nH]c1=O [azidothymidine]
activity against HIV and other retroviruses: activity against HIV and other retroviruses
